PubChem BioAssay AID743121, NCATS, 2013

- Assay: 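Partners whose loss is lethal together with topoisomerase I blockade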 (primary screen)
- Cell system: MDA-MB-231 cells, a human breast cancer line
- Knock-down reagent: single siRNA against human genes, 20 nM siRNA (0.8 pmol per well)
- Duration: 120 h (drug added 48 h after transfection, read 72 h later)
- Treatment: camptothecin 20 nM (about EC30) for 72 h; vehicle 0.1% DMSO in parallel plates
- Read-out: 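Cell viability by ATP luminescence (CellTiter-Glo) as % of non-targeting siRNA wells, and the log2 ratio of viability without drug over viability with camptothecin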
- Reading the numbers: log2 vehicle/camptothecin viability: higher = stronger sensitisation to camptothecin; viability with camptothecin and viability without drug: higher = more viable cells
- Active means: 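Active genes have an RSA gene-level p-value below 0.001, computed from the ratios of their separate siRNAs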
Here is one part, drawn at random, of about 26,000 deposited reagents. Of all reagents, 167 (0.63%) got an active call. 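Calls are per gene from RSA p-values that are not deposited; an individual active-marked siRNA can sensitise only weakly.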 Unmarked entries are inactive. Reagents against one gene are numbered here.

Target gene,siRNA no.,log2 vehicle/camptothecin viability,viability with camptothecin (% of control),viability without drug (% of control)
ABCA12,1,-0.0965,99.6,93.1
ABCA12,2,0.356,88.4,113
ABCA12,3,-0.225,102,87
ABCA12,4,-0.158,96.8,86.8
SRMS,1,-0.249,81.2,68.3
SRMS,2,0.928,25.9,49.2
SRMS,3,-0.461,66.4,48.3
SRMS,4,-0.462,81.6,59.2
PRICKLE1,1,-0.139,81.4,73.9
PRICKLE1,2,0.00401,93.9,94.2
PRICKLE1,3,0.117,66.1,71.7
PRICKLE1,4,-0.346,27,21.2
VPREB3,1,-0.274,111,92.1
VPREB3,2,0.146,61.1,67.6
VPREB3,3,0.0383,89.1,91.5
VPREB3,4,-0.0035,88.5,88.3
ARG1,1,-0.388,84,64.2
ARG1,2,-0.195,96.7,84.5
ARG1,3,-0.617,92.4,60.3
ARG1,4,0.0926,42.2,45
CASP10,1,0.315 (active),30.5,37.9
CASP10,2,0.124 (active),75.9,82.7
CASP10,3,0.494 (active),44.6,62.9
CASP10,4,0.229 (active),11.5,13.5
SLC5A1,1,-0.457,42.1,30.7
SLC5A1,2,0.299,55.8,68.6
SLC5A1,3,-0.115,84.3,77.9
SLC5A1,4,-0.282,66.3,54.5
SLC25A27,1,-0.114,105,97.4
SLC25A27,2,-0.424,77.1,57.5
SLC25A27,3,-0.462,96.9,70.4
PPP2R1B,1,1.86,10.6,38.5
PPP2R1B,2,-0.382,114,87.8
PPP2R1B,3,-0.153,75.2,67.6
PPP2R1B,4,-0.493,56.8,40.3
E2F8,1,-0.357,85.3,66.6
E2F8,2,-0.218,113,97.1
E2F8,3,-0.223,121,103
E2F8,4,-0.307,89.8,72.5
RABL2B,1,-0.0098,95,94.4
RABL2B,2,-0.214,55.7,48
RABL2B,3,-0.0747,105,99.6
RABL2B,4,0.21,57.9,66.9
ESYT1,1,0.0534,64,66.4
ESYT1,2,-0.609,109,71.3
ESYT1,3,-0.344,124,97.5
ESYT1,4,-0.113,42.7,39.5
ASPM,1,-0.00962,74.2,73.7
ASPM,2,-0.0679,57.4,54.7
ASPM,3,-1.22,35,15
ASPM,4,-0.371,113,87.4
PPP1R9A,1,-0.469,75,54.2
PPP1R9A,2,0.0885,71.1,75.6
PPP1R9A,3,0.126,65.9,72
PPP1R9A,4,-0.075,130,123
CACNG6,1,-0.178,85.1,75.3
CACNG6,2,0.000612,91.2,91.2
CACNG6,3,-0.193,89,77.9
CACNG6,4,-0.208,118,102
TPP2,1,-0.565,101,68.2
TPP2,2,-0.057,92.4,88.8
TPP2,3,-0.102,119,111
TPP2,4,-0.0916,104,97.2
ECEL1,1,0.316,30,37.3
ECEL1,2,0.151,49.7,55.2
ECEL1,3,-0.205,65.8,57
ECEL1,4,-0.146,86.9,78.5
VEGFA,1,0.134,62.2,68.2
VEGFA,2,-0.304,102,83
VEGFA,3,-0.0172,116,115
VEGFA,4,-0.324,106,84.4

Just “log2 vehicle/camptothecin viability”, for 4 of the entries above:
CASP10 #1	0.315 (active)
CASP10 #2	0.124 (active)
CASP10 #3	0.494 (active)
CASP10 #4	0.229 (active)
